Laboratory results taken from the supplement of paper PMC10849652.
The other results are listed elsewhere or left out.

By UniProt entry, the sequences of proteins in these tests, tags left out. Where a name states a change or a piece, a line headed by the entry shows the natural chain unless it says otherwise.
UniProt Q00537: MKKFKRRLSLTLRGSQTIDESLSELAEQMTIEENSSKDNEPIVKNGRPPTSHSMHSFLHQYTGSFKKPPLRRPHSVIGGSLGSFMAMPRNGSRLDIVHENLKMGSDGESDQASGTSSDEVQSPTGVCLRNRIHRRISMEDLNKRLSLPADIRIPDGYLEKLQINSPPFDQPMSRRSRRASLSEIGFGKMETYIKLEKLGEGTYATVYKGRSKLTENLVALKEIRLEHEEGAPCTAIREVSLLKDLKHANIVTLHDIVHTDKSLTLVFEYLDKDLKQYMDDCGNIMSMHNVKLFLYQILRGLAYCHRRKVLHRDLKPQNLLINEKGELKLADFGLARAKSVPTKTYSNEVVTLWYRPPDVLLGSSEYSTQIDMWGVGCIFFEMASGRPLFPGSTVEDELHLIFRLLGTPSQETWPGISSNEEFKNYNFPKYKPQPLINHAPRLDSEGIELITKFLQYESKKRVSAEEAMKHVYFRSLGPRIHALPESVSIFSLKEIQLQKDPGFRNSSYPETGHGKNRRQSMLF
UniProt Q12834, whole entry, looked up: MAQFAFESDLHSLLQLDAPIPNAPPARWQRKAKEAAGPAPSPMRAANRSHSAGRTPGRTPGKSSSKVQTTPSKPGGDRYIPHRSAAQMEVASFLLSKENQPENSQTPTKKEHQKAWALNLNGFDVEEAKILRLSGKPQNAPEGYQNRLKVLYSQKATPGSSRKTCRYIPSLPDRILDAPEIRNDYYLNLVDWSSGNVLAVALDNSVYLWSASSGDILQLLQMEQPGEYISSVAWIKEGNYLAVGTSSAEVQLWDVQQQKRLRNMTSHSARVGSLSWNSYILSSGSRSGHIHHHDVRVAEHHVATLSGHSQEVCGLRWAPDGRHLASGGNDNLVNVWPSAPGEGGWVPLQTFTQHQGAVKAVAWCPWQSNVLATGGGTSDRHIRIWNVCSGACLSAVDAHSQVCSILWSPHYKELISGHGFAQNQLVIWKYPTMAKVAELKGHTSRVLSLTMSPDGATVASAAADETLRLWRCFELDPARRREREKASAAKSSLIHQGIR
UniProt O43822: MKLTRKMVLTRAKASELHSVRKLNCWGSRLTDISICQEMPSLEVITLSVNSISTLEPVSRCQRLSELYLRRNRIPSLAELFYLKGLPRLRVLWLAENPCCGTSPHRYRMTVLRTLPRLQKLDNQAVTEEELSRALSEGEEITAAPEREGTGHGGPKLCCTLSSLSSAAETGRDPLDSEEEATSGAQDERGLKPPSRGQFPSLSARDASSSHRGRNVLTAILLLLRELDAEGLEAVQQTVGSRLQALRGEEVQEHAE
UniProt Q9BS16: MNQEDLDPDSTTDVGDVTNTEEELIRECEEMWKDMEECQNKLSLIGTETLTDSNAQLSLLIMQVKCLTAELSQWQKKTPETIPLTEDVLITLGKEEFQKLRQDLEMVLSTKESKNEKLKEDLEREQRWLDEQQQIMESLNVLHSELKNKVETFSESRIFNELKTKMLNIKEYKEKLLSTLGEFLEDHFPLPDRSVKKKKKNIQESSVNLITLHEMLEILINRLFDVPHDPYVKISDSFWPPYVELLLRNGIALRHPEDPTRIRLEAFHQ
UniProt P23528, whole entry, looked up: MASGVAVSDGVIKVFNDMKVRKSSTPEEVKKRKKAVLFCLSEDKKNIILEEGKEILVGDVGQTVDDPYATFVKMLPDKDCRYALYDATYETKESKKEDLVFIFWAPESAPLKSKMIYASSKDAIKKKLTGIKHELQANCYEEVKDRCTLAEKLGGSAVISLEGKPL
UniProt Q9NRR3: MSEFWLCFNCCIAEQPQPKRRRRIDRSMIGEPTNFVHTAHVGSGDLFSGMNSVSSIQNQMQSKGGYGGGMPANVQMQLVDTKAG
UniProt P46527, whole entry, looked up: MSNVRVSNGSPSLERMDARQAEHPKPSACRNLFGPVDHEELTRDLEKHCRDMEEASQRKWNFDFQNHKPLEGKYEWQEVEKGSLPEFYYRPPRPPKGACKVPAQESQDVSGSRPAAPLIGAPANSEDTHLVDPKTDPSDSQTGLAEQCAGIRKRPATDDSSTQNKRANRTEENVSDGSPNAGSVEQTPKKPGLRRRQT
UniProt Q9BYV8: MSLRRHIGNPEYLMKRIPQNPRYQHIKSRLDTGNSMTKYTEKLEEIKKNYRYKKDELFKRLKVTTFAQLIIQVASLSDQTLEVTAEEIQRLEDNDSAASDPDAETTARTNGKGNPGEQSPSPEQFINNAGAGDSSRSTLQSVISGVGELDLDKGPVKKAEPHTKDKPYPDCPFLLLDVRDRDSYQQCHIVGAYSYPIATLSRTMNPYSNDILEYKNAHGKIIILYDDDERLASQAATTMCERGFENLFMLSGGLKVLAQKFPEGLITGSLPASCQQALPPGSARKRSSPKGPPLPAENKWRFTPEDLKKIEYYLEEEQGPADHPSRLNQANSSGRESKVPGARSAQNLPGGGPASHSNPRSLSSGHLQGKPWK
UniProt P49454: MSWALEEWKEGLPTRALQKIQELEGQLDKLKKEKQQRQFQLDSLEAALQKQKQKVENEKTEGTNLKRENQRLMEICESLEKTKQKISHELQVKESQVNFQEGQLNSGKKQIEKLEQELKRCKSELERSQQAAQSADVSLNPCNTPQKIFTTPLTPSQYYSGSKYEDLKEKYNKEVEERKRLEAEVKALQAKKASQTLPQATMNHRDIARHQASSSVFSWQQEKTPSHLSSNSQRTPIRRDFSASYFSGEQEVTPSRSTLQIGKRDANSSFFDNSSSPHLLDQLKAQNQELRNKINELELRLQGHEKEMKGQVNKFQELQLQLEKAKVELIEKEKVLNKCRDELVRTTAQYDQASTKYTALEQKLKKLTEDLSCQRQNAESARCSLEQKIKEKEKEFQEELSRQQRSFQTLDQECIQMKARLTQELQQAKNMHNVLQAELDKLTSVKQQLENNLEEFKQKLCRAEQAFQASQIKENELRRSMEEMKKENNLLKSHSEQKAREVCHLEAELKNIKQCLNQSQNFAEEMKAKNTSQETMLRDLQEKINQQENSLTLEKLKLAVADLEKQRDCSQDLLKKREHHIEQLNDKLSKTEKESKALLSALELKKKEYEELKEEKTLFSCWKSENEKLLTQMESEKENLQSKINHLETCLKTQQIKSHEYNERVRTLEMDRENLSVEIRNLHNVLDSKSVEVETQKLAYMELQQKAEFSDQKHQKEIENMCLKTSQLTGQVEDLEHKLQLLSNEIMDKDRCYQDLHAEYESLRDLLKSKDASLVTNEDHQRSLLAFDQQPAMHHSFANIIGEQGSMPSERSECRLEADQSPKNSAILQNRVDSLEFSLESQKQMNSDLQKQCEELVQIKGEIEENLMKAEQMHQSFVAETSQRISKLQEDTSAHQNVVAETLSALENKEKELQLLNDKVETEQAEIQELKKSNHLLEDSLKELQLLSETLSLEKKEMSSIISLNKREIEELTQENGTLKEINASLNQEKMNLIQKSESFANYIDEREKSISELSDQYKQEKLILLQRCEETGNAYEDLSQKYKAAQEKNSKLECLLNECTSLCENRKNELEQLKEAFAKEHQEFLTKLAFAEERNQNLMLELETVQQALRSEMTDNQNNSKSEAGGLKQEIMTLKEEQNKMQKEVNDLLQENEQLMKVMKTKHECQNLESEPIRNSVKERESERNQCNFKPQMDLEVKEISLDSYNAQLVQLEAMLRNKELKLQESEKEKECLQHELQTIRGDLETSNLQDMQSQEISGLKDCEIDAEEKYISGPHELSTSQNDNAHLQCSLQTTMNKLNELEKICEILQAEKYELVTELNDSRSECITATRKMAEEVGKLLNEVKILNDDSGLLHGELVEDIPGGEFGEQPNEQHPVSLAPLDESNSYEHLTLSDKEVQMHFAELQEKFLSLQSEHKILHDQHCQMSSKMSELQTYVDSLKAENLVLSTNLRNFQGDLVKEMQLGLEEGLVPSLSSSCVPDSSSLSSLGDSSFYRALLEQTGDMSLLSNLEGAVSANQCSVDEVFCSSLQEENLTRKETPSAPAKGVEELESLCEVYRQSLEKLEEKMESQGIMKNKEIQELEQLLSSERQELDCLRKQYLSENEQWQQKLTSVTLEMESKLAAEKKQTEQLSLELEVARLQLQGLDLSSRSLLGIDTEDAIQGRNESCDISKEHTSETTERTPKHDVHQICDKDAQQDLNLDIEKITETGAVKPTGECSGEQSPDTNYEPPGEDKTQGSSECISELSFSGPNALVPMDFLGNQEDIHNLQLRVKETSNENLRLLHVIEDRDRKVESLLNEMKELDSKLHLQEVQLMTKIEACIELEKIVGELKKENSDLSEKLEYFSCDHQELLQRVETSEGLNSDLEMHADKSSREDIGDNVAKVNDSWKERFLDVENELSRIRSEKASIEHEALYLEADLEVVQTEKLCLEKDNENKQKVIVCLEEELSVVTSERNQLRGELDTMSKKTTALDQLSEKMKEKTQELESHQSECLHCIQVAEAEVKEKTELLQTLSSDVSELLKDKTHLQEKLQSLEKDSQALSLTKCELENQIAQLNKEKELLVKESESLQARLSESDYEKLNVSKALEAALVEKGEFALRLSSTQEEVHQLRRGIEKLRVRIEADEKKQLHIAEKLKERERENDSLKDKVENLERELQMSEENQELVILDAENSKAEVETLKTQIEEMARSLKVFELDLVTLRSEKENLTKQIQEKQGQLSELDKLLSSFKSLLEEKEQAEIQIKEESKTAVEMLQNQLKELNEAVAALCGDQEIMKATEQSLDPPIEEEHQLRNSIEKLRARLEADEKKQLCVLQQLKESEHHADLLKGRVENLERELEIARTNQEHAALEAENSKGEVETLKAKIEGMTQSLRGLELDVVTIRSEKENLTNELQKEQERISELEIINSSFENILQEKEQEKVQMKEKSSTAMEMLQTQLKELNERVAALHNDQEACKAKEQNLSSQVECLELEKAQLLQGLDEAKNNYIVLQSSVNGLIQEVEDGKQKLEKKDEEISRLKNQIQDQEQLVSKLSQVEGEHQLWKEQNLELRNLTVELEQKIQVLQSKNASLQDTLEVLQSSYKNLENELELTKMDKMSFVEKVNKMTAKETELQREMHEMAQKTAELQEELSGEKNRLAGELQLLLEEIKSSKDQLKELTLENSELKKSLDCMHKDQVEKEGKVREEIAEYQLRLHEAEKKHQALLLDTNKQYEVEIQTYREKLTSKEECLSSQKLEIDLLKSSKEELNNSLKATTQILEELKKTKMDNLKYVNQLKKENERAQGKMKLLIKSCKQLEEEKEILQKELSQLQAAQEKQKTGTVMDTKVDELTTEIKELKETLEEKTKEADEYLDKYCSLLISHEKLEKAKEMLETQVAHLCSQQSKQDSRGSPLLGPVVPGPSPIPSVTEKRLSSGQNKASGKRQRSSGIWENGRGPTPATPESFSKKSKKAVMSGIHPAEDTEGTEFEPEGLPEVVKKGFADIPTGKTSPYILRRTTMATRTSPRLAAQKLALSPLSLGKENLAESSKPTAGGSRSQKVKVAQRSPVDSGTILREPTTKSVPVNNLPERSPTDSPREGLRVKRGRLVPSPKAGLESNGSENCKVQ
UniProt O00311: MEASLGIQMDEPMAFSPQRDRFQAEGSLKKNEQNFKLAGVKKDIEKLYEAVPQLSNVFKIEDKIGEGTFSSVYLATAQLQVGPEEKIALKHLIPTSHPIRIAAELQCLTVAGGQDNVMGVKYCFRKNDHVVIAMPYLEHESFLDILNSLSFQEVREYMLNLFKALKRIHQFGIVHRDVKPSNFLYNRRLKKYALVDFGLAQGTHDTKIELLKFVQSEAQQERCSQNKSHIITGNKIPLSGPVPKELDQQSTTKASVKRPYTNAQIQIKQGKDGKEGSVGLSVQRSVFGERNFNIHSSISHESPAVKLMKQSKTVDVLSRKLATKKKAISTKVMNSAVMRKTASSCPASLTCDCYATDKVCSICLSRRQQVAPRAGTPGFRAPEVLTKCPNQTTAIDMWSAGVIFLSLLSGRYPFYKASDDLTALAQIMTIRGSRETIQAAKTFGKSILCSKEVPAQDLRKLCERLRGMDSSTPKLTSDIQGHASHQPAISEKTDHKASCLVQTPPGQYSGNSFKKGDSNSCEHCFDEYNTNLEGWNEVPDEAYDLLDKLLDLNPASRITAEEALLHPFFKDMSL
UniProt Q8N2Z9: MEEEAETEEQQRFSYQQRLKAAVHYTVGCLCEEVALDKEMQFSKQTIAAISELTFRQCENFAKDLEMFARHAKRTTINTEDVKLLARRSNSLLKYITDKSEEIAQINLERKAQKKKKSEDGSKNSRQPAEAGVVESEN
UniProt Q16543: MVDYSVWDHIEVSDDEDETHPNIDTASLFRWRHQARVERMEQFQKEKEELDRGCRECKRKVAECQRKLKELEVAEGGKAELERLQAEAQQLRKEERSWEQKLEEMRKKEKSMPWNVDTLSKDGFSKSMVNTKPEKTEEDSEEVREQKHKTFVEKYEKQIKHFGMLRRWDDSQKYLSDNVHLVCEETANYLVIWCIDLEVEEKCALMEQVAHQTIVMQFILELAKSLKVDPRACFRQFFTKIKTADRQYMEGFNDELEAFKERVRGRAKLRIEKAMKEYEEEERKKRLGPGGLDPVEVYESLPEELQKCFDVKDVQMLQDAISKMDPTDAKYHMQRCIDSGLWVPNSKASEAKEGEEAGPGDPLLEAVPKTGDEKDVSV

Assays:
Test in all cases: log2 fold change, soluble protein after heating vs DMSO (PISA); higher = thermal stabilisation; K562 lysate, 10 uM; active = over 0.2 and 3.5 SD of the protein, either way, in both replicates (recomputed)
[1] = compound: C1=CC=C(C=C1)[C@H](COC2=CC3=C(C=C2)NC(=O)N3)NC(=O)C4=CC=CN(C4=O)CC5=CC(=C(C=C5)F)F
How it was run: (§1)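 Thermal stability, expressed as log-two fold change relative to solvent controls, is given from duplicates. Crude K562 extract in PBS pH 7.4 with 1 mM MgCl2, at 1 mg/mL protein, was treated with 10 μM compound for 30 min and heated in aliquots for 3 min across 48°C-58°C. After pooling, adjustment to 0.5% NP-40 at 4°C and centrifugation at 21,000xg for 90 min, supernatant protein was measured by TMTpro 16plex LC-MS/MS with channel sums equalised.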

[2] = compound: CC1=C(SC2=C1C(=N[C@H](C3=NN=C(N32)C)CC(=O)N)C4=CC=C(C=C4)Cl)C
How it was run: as §1

[3] = compound: CC1=C2C(=CC=C1)N=C(N(C2=O)C3=CC=CC=C3C)CN4C=NC5=C(N=CN=C54)N
How it was run: as §1

[4] = compound: Cc1sc2c(c1C)C(c1ccc(Cl)cc1)=N[C@@H](CC(=O)OC(C)(C)C)c1nnc(C)n1-2
How it was run: as §1

[5] = compound: c1ccc([C@@H]2C[C@H]2NC2CCNCC2)cc1
How it was run: as §1

Target	log2 fold change [1]	log2 fold change [2]	log2 fold change [3]	log2 fold change [4]	log2 fold change [5]
CDK17 isoform 2 (UniProt Q00537)	inactive: 0.072	inactive: 0.099	inactive: 0.109	inactive: 0.072	inactive: -0.146
CDK16 isoform 2 (UniProt Q00536)	inactive: -0.02	inactive: -0.059	inactive: -0.11	inactive: -0.011	inactive: -0.049
CEP164 (UniProt Q9UPV0)	inactive: -0.118	inactive: 0.148	–	–	–
CDYL (UniProt Q9Y232)	inactive: 0.051	inactive: 0.005	inactive: -0.03	inactive: 0.023	inactive: -0.059
CEP55 (UniProt Q53EZ4)	inactive: 0.059	inactive: 0.058	inactive: 0.022	inactive: -0.062	inactive: 0.033
CDC20 (UniProt Q12834)	inactive: 0.067	inactive: 0.023	inactive: -0.077	inactive: -0.117	inactive: 0.014
CDC34 (UniProt P49427)	inactive: -0.008	inactive: -0.019	inactive: -0.064	inactive: 0.021	inactive: 0.04
CDK8 (UniProt P49336)	inactive: -0.05	inactive: -0.108	inactive: 0.202	inactive: 0.017	inactive: -0.045
CDK19 (UniProt Q9BWU1)	inactive: 0.043	inactive: 0	inactive: -0.021	inactive: -0.178	inactive: -0.262
CDR2 (UniProt Q01850)	inactive: 0.025	inactive: -0.041	inactive: 0.013	inactive: 0.127	inactive: -0.011
CFAP410 (UniProt O43822)	inactive: -0.04	inactive: 0.039	inactive: 0.098	–	–
CENPK (UniProt Q9BS16)	inactive: 0.019	inactive: -0.009	inactive: 0.104	inactive: 0.019	inactive: 0.033
CENPJ (UniProt Q9HC77)	inactive: -0.004	inactive: -0.04	inactive: 0.133	inactive: -0.01	–
CFH (UniProt P08603)	inactive: 0.062	inactive: 0.049	inactive: 0.011	inactive: -0.08	inactive: 0.067
CDKN1C (UniProt P49918)	inactive: 0.035	inactive: -0.012	inactive: 0.185	inactive: 0.094	inactive: 0.025
CFL1 (UniProt P23528)	inactive: 0.021	inactive: -0.006	inactive: -0.007	inactive: 0.024	inactive: 0.001
CEP152 (UniProt O94986)	inactive: 0.024	inactive: -0.236	inactive: 0.01	inactive: 0.008	inactive: -0.028
CDC37L1 (UniProt Q7L3B6)	inactive: 0.009	inactive: -0.042	inactive: -0.041	inactive: -0.058	inactive: -0.014
CDK5RAP1 (UniProt Q96SZ6)	active: 0.266	inactive: -0.117	inactive: 0.05	inactive: -0.023	inactive: -0.004
CDC42SE2 (UniProt Q9NRR3)	inactive: 0.033	inactive: -0.02	inactive: 0.078	inactive: -0.077	inactive: -0.035
CDKN1B (UniProt P46527)	inactive: 0.059	inactive: -0.038	inactive: 0.146	inactive: 0.101	inactive: 0.02
CDC42 (UniProt P60953)	inactive: 0.048	inactive: -0.046	inactive: 0.043	inactive: 0.073	inactive: 0.045
CDC27 isoform 2 (UniProt P30260)	inactive: -0.018	inactive: 0.025	inactive: 0.042	inactive: 0.019	inactive: 0.037
CDK5RAP2 (UniProt Q96SN8)	inactive: 0.018	inactive: 0.038	inactive: 0.041	inactive: -0.026	inactive: 0.072
CEP41 (UniProt Q9BYV8)	inactive: -0.026	inactive: -0.06	inactive: -0.106	inactive: -0.068	inactive: -0.045
CHAC1 (UniProt Q9BUX1)	inactive: -0.14	inactive: 0.362	inactive: -0.083	inactive: -0.137	–
CHAC2 (UniProt Q8WUX2)	inactive: 0.079	inactive: 0.005	inactive: 0.028	inactive: -0.025	active: 0.344

Laid out differently: entries from further up.

| Target | log2 fold change [1] | log2 fold change [2] | log2 fold change [3] | log2 fold change [4] | log2 fold change [5] |
| --- | --- | --- | --- | --- | --- |
| CDK17 isoform 2 (UniProt Q00537) | inactive: 0.072 | inactive: 0.099 | inactive: 0.109 | inactive: 0.072 | inactive: -0.146 |
| CEP164 (UniProt Q9UPV0) | inactive: -0.118 | inactive: 0.148 | – | – | – |
| CDYL (UniProt Q9Y232) | inactive: 0.051 | inactive: 0.005 | inactive: -0.03 | inactive: 0.023 | inactive: -0.059 |
| CEP55 (UniProt Q53EZ4) | inactive: 0.059 | inactive: 0.058 | inactive: 0.022 | inactive: -0.062 | inactive: 0.033 |
| CDK19 (UniProt Q9BWU1) | inactive: 0.043 | inactive: 0 | inactive: -0.021 | inactive: -0.178 | inactive: -0.262 |
| CFAP410 (UniProt O43822) | inactive: -0.04 | inactive: 0.039 | inactive: 0.098 | – | – |
| CENPK (UniProt Q9BS16) | inactive: 0.019 | inactive: -0.009 | inactive: 0.104 | inactive: 0.019 | inactive: 0.033 |
| CFH (UniProt P08603) | inactive: 0.062 | inactive: 0.049 | inactive: 0.011 | inactive: -0.08 | inactive: 0.067 |
| CDKN1C (UniProt P49918) | inactive: 0.035 | inactive: -0.012 | inactive: 0.185 | inactive: 0.094 | inactive: 0.025 |
| CFL1 (UniProt P23528) | inactive: 0.021 | inactive: -0.006 | inactive: -0.007 | inactive: 0.024 | inactive: 0.001 |
| CDC37L1 (UniProt Q7L3B6) | inactive: 0.009 | inactive: -0.042 | inactive: -0.041 | inactive: -0.058 | inactive: -0.014 |
| CDKN1B (UniProt P46527) | inactive: 0.059 | inactive: -0.038 | inactive: 0.146 | inactive: 0.101 | inactive: 0.02 |
| CDC42 (UniProt P60953) | inactive: 0.048 | inactive: -0.046 | inactive: 0.043 | inactive: 0.073 | inactive: 0.045 |
| CDC27 isoform 2 (UniProt P30260) | inactive: -0.018 | inactive: 0.025 | inactive: 0.042 | inactive: 0.019 | inactive: 0.037 |

Additional entries

Target	log2 fold change [1]	log2 fold change [2]	log2 fold change [3]	log2 fold change [4]	log2 fold change [5]
CDK5RAP3 isoform 4 (UniProt Q96JB5)	inactive: -0.011	inactive: -0.018	inactive: 0.022	inactive: -0.01	inactive: -0.154
CFL1 (UniProt E9PP50)	inactive: 0	inactive: -0.08	–	–	–
CEP192 (UniProt Q8TEP8)	inactive: -0.081	inactive: -0.018	inactive: 0.018	inactive: 0.04	inactive: -0.053
CDC42BPA isoform 6 (UniProt Q5VT25)	inactive: 0.008	inactive: -0.003	inactive: -0.008	inactive: 0.026	inactive: 0.052
CDIPT (UniProt O14735)	inactive: 0.007	inactive: -0.036	inactive: 0.027	inactive: -0.048	inactive: -0.013
CDC40 (UniProt O60508)	inactive: 0.036	inactive: 0.003	inactive: -0.099	inactive: 0.099	inactive: -0.03
CDK2AP2 (UniProt O75956)	inactive: 0.046	inactive: -0.101	inactive: 0.092	inactive: 0.074	inactive: -0.216
CFDP1 (UniProt Q9UEE9)	inactive: 0.051	inactive: -0.03	inactive: -0.017	inactive: -0.03	inactive: -0.124
CEP76 (UniProt Q8TAP6)	inactive: -0.009	inactive: -0.01	inactive: -0.043	inactive: 0.002	inactive: -0.027
CES2 isoform 4 (UniProt O00748)	inactive: 0.129	inactive: 0.159	inactive: -0.089	inactive: 0.093	inactive: -0.07
CFL2 (UniProt Q9Y281)	inactive: 0.017	inactive: 0.017	inactive: -0.037	inactive: 0.003	inactive: -0.054
CEP290 (UniProt O15078)	inactive: -0.056	inactive: 0.097	inactive: 0.055	inactive: -0.09	inactive: 0.024
CEP85 isoform 2 (UniProt Q6P2H3)	inactive: -0.125	inactive: 0.045	inactive: 0.032	inactive: -0.06	inactive: 0.078
CENPF (UniProt P49454)	inactive: -0.01	inactive: -0.007	inactive: 0.013	inactive: -0.024	inactive: -0.002
CELF1 isoform 4 (UniProt Q92879)	inactive: 0.04	inactive: -0.005	inactive: 0.07	inactive: 0.044	inactive: 0.144
CDC7 (UniProt O00311)	inactive: -0.063	inactive: 0.084	inactive: 0.019	inactive: 0.003	inactive: 0.008
CDK1 (UniProt P06493)	inactive: 0.037	inactive: -0.009	inactive: 0.042	inactive: 0.021	inactive: 0.018
CDC25C (UniProt P30307)	inactive: 0.018	inactive: -0.011	inactive: 0.023	inactive: 0.07	inactive: 0.027
CDC42BPB (UniProt Q9Y5S2)	inactive: 0.009	inactive: 0	inactive: 0.04	inactive: -0.074	inactive: 0.169
CENPS (UniProt Q8N2Z9)	inactive: 0.061	inactive: -0.021	inactive: -0.035	inactive: -0.015	inactive: -0.108
CEP135 (UniProt Q66GS9)	inactive: 0	inactive: -0.007	inactive: 0.008	inactive: 0.012	inactive: 0.017
CDC37 (UniProt Q16543)	inactive: 0.011	inactive: -0.003	inactive: -0.058	inactive: 0.005	inactive: 0.012
CDV3 (UniProt Q9UKY7)	inactive: 0.031	inactive: -0.022	inactive: -0.022	inactive: -0.018	inactive: -0.014
CDKN2C (UniProt P42773)	inactive: -0.023	inactive: -0.165	inactive: 0.001	inactive: -0.016	inactive: 0.009
CDK4 (UniProt P11802)	inactive: 0.029	inactive: -0.006	inactive: -0.02	inactive: 0.045	inactive: -0.102
CDK12 (UniProt Q9NYV4)	inactive: -0.04	inactive: 0.032	inactive: -0.004	inactive: -0.025	inactive: -0.03
CDK13 (UniProt Q14004)	inactive: -0.091	inactive: -0.031	inactive: -0.052	inactive: 0.049	inactive: 0.052
